PubChem BioAssay AID1487 (National Center for Advancing Translational Sciences (NCATS), 2009)
The other results are listed elsewhere or left out. Further columns of the screen follow, without active or inactive calls. Compounds called inactive in the main read-out are mostly missing here. Potencies come from curve fits of mixed quality, noted in brackets.

Assay: qHTS Assay for Modulators of Lamin A Splicing
Conditions: HeLa LMNA splicing GFP/RFP minigene ratio, 48 h
Summary of the method: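 S3 HeLa cells stably expressing lamin A-EGFP splicing minigene plus DsRed2, 600 cells/well, 48 h compound exposure at 37C. Laser-scanning cytometry; analysed as GFP (500-530 nm)/RFP (575-640 nm) total intensity ratio; 0.5% DMSO vehicle.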

[1] = measured here: GFP splicing reporter channel
[2] = measured here: RFP viability control channel

Compound | AC50 [1] | AC50 [2]
CC[C@H](c1ccc(O)cc1)[C@@H](CC)c1ccc(O)cc1 | 0.447 µM [falling, full curve] | 0.316 µM [falling, full curve]
Cc1cc(C)c2c(C)c(C(=O)NCc3ccc(S(N)(=O)=O)cc3)oc2c1 | 2.82 µM [falling, partial curve] | 3.16 µM [falling, single point]
Cc1c(Nc2ncccc2C(=O)O)cccc1C(F)(F)F | 0.00794 µM [rising, single point] | –
CCCN(CCC)C(=O)CC(c1ccccc1)c1cc(Br)ccc1O (stereo not drawn) | – | 31.6 µM [rising, single point]
Cc1ccccc1N=C1N=C(N)c2ccccc21 | – | 20 µM [rising, partial curve, poor fit]
O=C(CN1CCN(CCN2C(=O)c3cccc4cccc(c34)C2=O)CC1)c1ccc(F)cc1 | – | 35.5 µM [rising, single point]
COc1ccc(-n2cc(CN3CCCC3)c(-c3cccc(F)c3)n2)cc1 | 7.94 µM [falling, full curve, poor fit] | 5.62 µM [falling, partial curve, poor fit]
COC(=O)COc1ccc(S(=O)(=O)NCc2ccncc2)cc1 | – | 12.6 µM [rising, single point]
Cc1ccc(C(=O)OCC(=O)Nc2cccc(Cl)c2C)c(O)c1 | 0.00355 µM [rising, full curve, poor fit] | 0.0398 µM [rising, full curve, poor fit]
Cc1ccc(NC(=O)Cc2c(Cl)cccc2Cl)cc1S(=O)(=O)N(C)C | 12.6 µM [rising, single point] | 22.4 µM [rising, single point]
Cc1cccc(NS(=O)(=O)c2cccc([N+](=O)[O-])c2)n1 | – | 0.0141 µM [falling, partial curve, poor fit]
Cn1cccc1CNC(=S)Nc1ccccc1F | – | 1.78 µM [falling, partial curve, poor fit]
COc1ccc(CNC(=O)C2CCN(S(=O)(=O)N3CCC(C)CC3)CC2)c(OC)c1 | 0.0794 µM [falling, partial curve, poor fit] | –
CC1(C)CC(N(Cc2ccccc2)C(=O)Cc2ccccc2)CCO1 (stereo not drawn) | – | 3.98 µM [falling, partial curve]
CCCC(O)(CCC)C(=O)NN(C(=O)CCl)c1ccccc1 | 35.5 µM [falling, single point] | 2.24 µM [rising, partial curve, poor fit]
Cn1cc(S(=O)(=O)N2CCc3ccccc32)cc1C(=O)Nc1ccc(C(F)(F)F)cc1 | 5.62 µM [rising, partial curve, poor fit] | 17.8 µM [rising, partial curve]
CN1CC(=O)N(CC(=O)Nc2cc(Cl)cc(Cl)c2)C1=O | 5.01 µM [falling, full curve] | –
CCc1ccc(NC(=O)CSc2nc3c([nH]c4ccccc43)c(=O)n2C)cc1 | 0.158 µM [falling, full curve, poor fit] | 20 µM [falling, single point]

Compound | AC50 [1] | AC50 [2]
CC(C)(C)NC(=O)/C=C/c1cccs1 | – | 0.178 µM [falling, full curve]
CC(C)(C)C(=O)Nc1ccccc1C(=O)Nc1cc(Cl)ccc1Cl | 20 µM [rising, single point] | –
CC(=O)C1=C(O)C(=O)OC1c1ccc(C)cc1 (stereo not drawn) | – | 3.16 µM [falling, full curve, poor fit]
NC(=O)c1ccc(N2CCN(c3ccccc3O)CC2)c([N+](=O)[O-])c1 | 0.00447 µM [falling, full curve, poor fit] | 0.00447 µM [falling, full curve, poor fit]
COc1ccc(C(=O)NC(=S)NNC(=O)c2cnccn2)cc1 | – | 5.62 µM [rising, single point]
O=C(Nc1ccc(Cl)c(S(=O)(=O)N2CCOCC2)c1)c1ccccc1-c1ccc(C(F)(F)F)cc1 | 11.2 µM [rising, partial curve] | 11.2 µM [rising, partial curve]
Cc1cc(C)n2nc(SCc3nnc(SCc4ccccc4)s3)nc2n1 | 11.2 µM [rising, single point] | 15.8 µM [rising, single point]
COc1ccc(CCNC(=O)c2c(Nc3ccccc3C)sc(C(=O)c3ccccc3)c2N)cc1OC | – | 35.5 µM [rising, single point]
Cc1sc2ncnc(Sc3nnc4sc5ccccc5n34)c2c1C | – | 5.62 µM [rising, single point]
COC/C=C/C1=CC2=CC(=O)C(C)(OC(=O)c3cnc4ccccc4n3)C(=O)C2=CN1C1CCCCC1 (stereo not drawn) | – | 3.55 µM [rising, single point]
COc1cc2c(cc1O)CCC1C2CC[C@]2(C)[C@@H](O)CC[C@@H]12 (stereo partly drawn) | 1.78 µM [falling, full curve] | 2.51 µM [falling, full curve]
COc1ccc(C(c2nnnn2C2CCCC2)N2CCN(c3ccccc3)CC2)cc1 (stereo not drawn) | – | 15.8 µM [rising, single point]
Cc1ccc(NS(=O)(=O)c2ccc(C3CCCCC3)cc2)cc1 | – | 12.6 µM [rising, partial curve]
COc1ccc(S(=O)(=O)N2CCN(C(=O)c3cc(C)oc3C)CC2)cc1 | – | 5.62 µM [rising, partial curve]
O=C(NC(=S)Nc1ccc(N2CCCC2)cc1)c1ccccc1[N+](=O)[O-] | 0.126 µM [rising, full curve, poor fit] | –
Cc1ccc(NC(=O)Nc2nnc(CSCCOc3ccc(Cl)cc3)s2)cc1 | 7.08 µM [rising, partial curve, poor fit] | 11.2 µM [rising, partial curve]
Cc1nc2c(C)cccc2cc1C(=O)N/N=C/c1ccc(O)cc1 | – | 20 µM [rising, single point]
